Results reported in the supplement of paper PMC7646827.
Where a name gives a salt, the structure may show the parent alone. Repeats are few or missing, and single values can be far off.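 All cells are established human bladder cancer lines, one derived from a patient-derived xenograft. A luminescent ATP assay measured viability as percent inhibition relative to vehicle across seven dilutions. The paper rates scores above 59 very active, 30–59 active, 21–29 semi-active, 9–20 low active, below 9 inactive.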

How the values were obtained:
Assay in all cases: drug sensitivity score DSS3 (score 0-100); higher = more sensitive; extreme values may be limits of the assay
Settings in all cases: culture: 3D, ultra-low attachment; treatment time: 5 days
5637 = system: 5637
BC8149 = system: BC8149
J82 = system: J82
SCaBER = system: SCaBER
SW780 = system: SW780
T-24 = system: T-24
TCCSUP = system: TCCSUP
UM-UC-12 = system: UM-UC-12
UM-UC-14 = system: UM-UC-14
UM-UC-15 = system: UM-UC-15
UM-UC-17 = system: UM-UC-17
UM-UC-18 = system: UM-UC-18
UM-UC-1 = system: UM-UC-1
UM-UC-3 = system: UM-UC-3
UM-UC-5 = system: UM-UC-5
UM-UC-6 = system: UM-UC-6
UM-UC-9 = system: UM-UC-9

| Compound | drug sensitivity score DSS3 5637 | drug sensitivity score DSS3 (BC8149) | drug sensitivity score DSS3 (J82) | drug sensitivity score DSS3 (SCaBER) | drug sensitivity score DSS3 (SW780) | drug sensitivity score DSS3 (T-24) | drug sensitivity score DSS3 (TCCSUP) | drug sensitivity score DSS3 (UM-UC-12) | drug sensitivity score DSS3 (UM-UC-14) | drug sensitivity score DSS3 (UM-UC-15) | drug sensitivity score DSS3 (UM-UC-17) | drug sensitivity score DSS3 (UM-UC-18) | drug sensitivity score DSS3 (UM-UC-1) | drug sensitivity score DSS3 (UM-UC-3) | drug sensitivity score DSS3 (UM-UC-5) | drug sensitivity score DSS3 (UM-UC-6) | drug sensitivity score DSS3 (UM-UC-9) |
| --- | --- | --- | --- | --- | --- | --- | --- | --- | --- | --- | --- | --- | --- | --- | --- | --- | --- |
| CN(CCOc1ccc(CC2SC(=O)NC2=O)cc1)c1ccccn1 (centres undefined) [Rosiglitazone] (max dose 10000 nM) | 0 | 0 | 0 | 0 | 0 | 0 | 0 | 0 | 0 | 0 | 0 | 0 | 0 | 0 | 0 | 0 | 0.045 |
| COc1ccc(/C=C\c2cc(OC)c(OC)c(OC)c2)cc1O [Combretastatin A4] (max dose 10000 nM) | 40.3 | 33.9 | 0 | 0 | 6.9e-05 | 0 | 29.1 | 34.7 | 7.92 | 0 | 19.6 | 0 | 15.8 | 30 | 0 | 5.92 | 5.29 |
| CNC(=O)c1cnn(-c2nc(N)c3ncn([C@@H]4O[C@H](CO)[C@@H](O)[C@H]4O)c3n2)c1 [Regadenoson] (max dose 10000 nM) | 0 | 0 | 0 | 0 | 0 | 0 | 0 | 0 | 0 | 17.4 | 0 | 0 | 0 | 0 | 0 | 0 | 0 |
| CCCc1cc(C)[nH]c(=O)c1CNC(=O)c1cc(-c2ccc(N3CCN(C(C)C)CC3)nc2)cc2c1cnn2C(C)C [UNC1999] (max dose 10000 nM) | 2.63 | 0.029 | 0 | 0 | 0 | 0 | 1.73 | 0 | 1.78 | 0.137 | 0 | 2.18 | 14.7 | 0 | 0.0129 | 0 | 0 |
| C/C=C1\NC(=O)[C@H]2CSSCC/C=C/[C@H](CC(=O)N[C@H](C(C)C)C(=O)N2)OC(=O)[C@H](C(C)C)NC1=O [Romidepsin] (max dose 10000 nM) | 91.3 | 90.1 | 60.6 | 80.9 | 43.6 | 76.5 | 93.7 | 85.2 | 77.8 | 88.7 | 95.3 | 79.3 | 84 | 78.1 | 83 | 79.2 | 81.4 |
| COC1=CC(c2cc3ccccc3[nH]2)=N/C1=C\c1[nH]c(C)cc1C [Obatoclax Mesylate (GX15-070)] (max dose 10000 nM) | 4.61 | 6.61 | 1.91 | 6.52 | 0 | 0.855 | 2.56 | 6.98 | 0 | 4.67 | 1 | 1.3 | 0 | 3.48 | 7.85 | 5.35 | 0 |
| CCC1(c2ccc(N)cc2)CCC(=O)NC1=O (centres undefined) [Aminoglutethimide] (max dose 10000 nM) | 0 | 0 | 0 | 0 | 0 | 0 | 0 | 0 | 0 | 0 | 0 | 0 | 0 | 0 | 0 | 0 | 0 |
| CC(C)C[C@H](NC(=O)[C@@H](NC(=O)c1cccc(-c2ccccc2)n1)[C@@H](C)O)B(O)O (max dose 10000 nM) | 64.4 | 71.3 | 56.8 | 63.6 | 60.5 | 10.7 | 51.6 | 77.6 | 60.3 | 51.2 | 55.1 | 53.6 | 49.8 | 20.2 | 48.6 | 41.1 | 55.1 |
| Cc1ccc(NC(=O)c2cccc(C(C)(C)C#N)c2)cc1Nc1ccc2ncn(C)c(=O)c2c1 [AZ 628] (max dose 10000 nM) | 14 | 6.11 | 0 | 10.9 | 6.16 | 1.56 | 0.673 | 3.23 | 0.308 | 0.561 | 0 | 2.79 | 0.0936 | 7.34 | 19.5 | 0 | 3.02 |
| CCN(CCCOc1ccc2c(Nc3cc(CC(=O)Nc4cccc(F)c4)[nH]n3)ncnc2c1)CCOP(=O)(O)O [Barasertib (AZD1152-HQPA)] (max dose 10000 nM) | 45.6 | 24.3 | 0.808 | 7.26 | 0 | 0 | 56.2 | 6.69 | 12.9 | 0 | 20.6 | 16.6 | 26.7 | 2.61 | 0 | 26.8 | 0 |
| Nc1nc(N)c(N=O)c(OCC2CCCCC2)n1 [NU6027] (max dose 10000 nM) | 0 | 0 | 0 | 0 | 0 | 0 | 1.82 | 0 | 0 | 6.04 | 0 | 0 | 0 | 0 | 0 | 0 | 0 |
| COc1ccc(-c2oc3c(CC=C(C)C)c(O)cc(O)c3c(=O)c2O[C@@H]2O[C@@H](C)[C@H](O)[C@@H](O)[C@H]2O)cc1 [Baohuoside I] (max dose 10000 nM) | 0 | 0 | 0 | 0 | 0 | 0.474 | 0 | 0 | 0 | 1.81 | 0 | 0 | 0 | 0 | 0 | 0 | 0.596 |

Two compounds from above, reduced to drug sensitivity score DSS3 (UM-UC-12) and drug sensitivity score DSS3 (TCCSUP).
Compound	drug sensitivity score DSS3 (UM-UC-12)	drug sensitivity score DSS3 (TCCSUP)
CCC1(c2ccc(N)cc2)CCC(=O)NC1=O (centres undefined) [Aminoglutethimide] (max dose 10000 nM)	0	0
CC(C)C[C@H](NC(=O)[C@@H](NC(=O)c1cccc(-c2ccccc2)n1)[C@@H](C)O)B(O)O (max dose 10000 nM)	77.6	51.6
